Source: patent US10414891B2, “Polyurethane curatives” (The Shepherd Chemical Company, priority 2015, dated 2019)

Experiments:
[1] = VOC (fogging) measurement of PU formulation under standardized automotive conditions; details: same formulation and same use level as stannous octanoate
[2] = Foam kinetics and density of two-component PU system; details: 0.02% w/w catalyst, TDI 80-20 / polyester polyol, water 3.5 w/w

Compound	VOC's compared between the BiCAT systems [1]	Cream time [2]	Foam Density [2]	Tack free time [2]
bismuth, 1,1′,1″,1′″-(1,2-ethanediyldinitrilo)tetrakis[2-propanol] neodecanoate complexes [Curative 8840]	the same			
bismuth, 2,2′,2″,2′″-(1,2-ethanediyldinitrilo)tetrakis[ethanol] neodecanoate complexes [Curative 8842]	the same	14 min	35.4 kg/m^3	89 min
CCCCC(CC)C(=O)[O-].CCCCC(CC)C(=O)[O-].[Sn+2] (centres unmarked) [Stannous Octoate, stannous octoate, reference compound]		15 min	35.1 kg/m^3	88 min
